For at least one entry, the source does not settle the construct or the ends of the probe. Negatives hold for the conditions tested.
System: NheI restriction endonuclease
Test: enzyme reaction in vitro
Conditions: 5mC in AGCT (AluI methylase); cleavage blocked by AluI methylation; optical mapping; purified recombinant protein

With “AGCTAGC (double strand) [E. coli genomic DNA, AluI-methylated NheI site]” the “activity on this sequence” value was “not active”.

Source: patent publication US20060275806
